Results published in the supplement of paper PMC10849652.
The other results are listed elsewhere or left out.

Sequences of proteins named here, by UniProt entry; tags and fusion partners are left off. A change or cut given only in a name is not applied to a line headed by its entry.
UniProt Q96EB1: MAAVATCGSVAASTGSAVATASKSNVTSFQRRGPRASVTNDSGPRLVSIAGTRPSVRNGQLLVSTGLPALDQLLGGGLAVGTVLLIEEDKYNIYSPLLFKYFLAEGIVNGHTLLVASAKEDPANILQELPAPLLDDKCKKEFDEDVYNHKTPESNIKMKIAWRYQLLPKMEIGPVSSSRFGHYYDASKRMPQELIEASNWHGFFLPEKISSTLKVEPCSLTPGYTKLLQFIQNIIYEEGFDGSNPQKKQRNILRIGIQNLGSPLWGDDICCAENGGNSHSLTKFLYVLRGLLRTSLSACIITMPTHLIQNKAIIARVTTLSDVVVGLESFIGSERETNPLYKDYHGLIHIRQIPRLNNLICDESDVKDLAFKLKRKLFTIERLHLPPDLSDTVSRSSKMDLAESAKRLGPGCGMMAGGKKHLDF
UniProt Q9UI10, whole entry, looked up: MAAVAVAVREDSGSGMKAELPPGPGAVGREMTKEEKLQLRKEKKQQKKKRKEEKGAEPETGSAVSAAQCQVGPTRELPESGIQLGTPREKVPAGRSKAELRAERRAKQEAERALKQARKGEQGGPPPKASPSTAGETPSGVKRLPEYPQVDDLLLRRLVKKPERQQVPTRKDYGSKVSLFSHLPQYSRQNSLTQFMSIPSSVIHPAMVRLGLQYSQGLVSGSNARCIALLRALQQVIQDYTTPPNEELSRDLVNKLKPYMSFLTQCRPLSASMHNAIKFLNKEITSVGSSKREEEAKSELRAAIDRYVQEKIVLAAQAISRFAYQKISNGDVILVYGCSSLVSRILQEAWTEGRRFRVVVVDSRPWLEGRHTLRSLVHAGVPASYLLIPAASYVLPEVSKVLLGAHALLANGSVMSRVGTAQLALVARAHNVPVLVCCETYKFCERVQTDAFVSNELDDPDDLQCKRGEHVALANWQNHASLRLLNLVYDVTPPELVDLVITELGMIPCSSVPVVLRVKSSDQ
UniProt Q96RQ1: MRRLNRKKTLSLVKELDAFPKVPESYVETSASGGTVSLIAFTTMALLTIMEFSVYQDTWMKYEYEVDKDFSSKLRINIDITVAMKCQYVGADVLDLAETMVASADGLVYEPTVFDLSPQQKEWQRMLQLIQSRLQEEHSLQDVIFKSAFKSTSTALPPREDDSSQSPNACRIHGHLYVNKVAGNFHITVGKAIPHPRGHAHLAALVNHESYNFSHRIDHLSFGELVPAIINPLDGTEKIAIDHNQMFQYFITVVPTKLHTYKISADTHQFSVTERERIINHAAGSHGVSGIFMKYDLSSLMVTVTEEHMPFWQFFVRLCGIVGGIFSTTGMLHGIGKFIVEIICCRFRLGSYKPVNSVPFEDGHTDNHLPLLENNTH
UniProt Q96RT1: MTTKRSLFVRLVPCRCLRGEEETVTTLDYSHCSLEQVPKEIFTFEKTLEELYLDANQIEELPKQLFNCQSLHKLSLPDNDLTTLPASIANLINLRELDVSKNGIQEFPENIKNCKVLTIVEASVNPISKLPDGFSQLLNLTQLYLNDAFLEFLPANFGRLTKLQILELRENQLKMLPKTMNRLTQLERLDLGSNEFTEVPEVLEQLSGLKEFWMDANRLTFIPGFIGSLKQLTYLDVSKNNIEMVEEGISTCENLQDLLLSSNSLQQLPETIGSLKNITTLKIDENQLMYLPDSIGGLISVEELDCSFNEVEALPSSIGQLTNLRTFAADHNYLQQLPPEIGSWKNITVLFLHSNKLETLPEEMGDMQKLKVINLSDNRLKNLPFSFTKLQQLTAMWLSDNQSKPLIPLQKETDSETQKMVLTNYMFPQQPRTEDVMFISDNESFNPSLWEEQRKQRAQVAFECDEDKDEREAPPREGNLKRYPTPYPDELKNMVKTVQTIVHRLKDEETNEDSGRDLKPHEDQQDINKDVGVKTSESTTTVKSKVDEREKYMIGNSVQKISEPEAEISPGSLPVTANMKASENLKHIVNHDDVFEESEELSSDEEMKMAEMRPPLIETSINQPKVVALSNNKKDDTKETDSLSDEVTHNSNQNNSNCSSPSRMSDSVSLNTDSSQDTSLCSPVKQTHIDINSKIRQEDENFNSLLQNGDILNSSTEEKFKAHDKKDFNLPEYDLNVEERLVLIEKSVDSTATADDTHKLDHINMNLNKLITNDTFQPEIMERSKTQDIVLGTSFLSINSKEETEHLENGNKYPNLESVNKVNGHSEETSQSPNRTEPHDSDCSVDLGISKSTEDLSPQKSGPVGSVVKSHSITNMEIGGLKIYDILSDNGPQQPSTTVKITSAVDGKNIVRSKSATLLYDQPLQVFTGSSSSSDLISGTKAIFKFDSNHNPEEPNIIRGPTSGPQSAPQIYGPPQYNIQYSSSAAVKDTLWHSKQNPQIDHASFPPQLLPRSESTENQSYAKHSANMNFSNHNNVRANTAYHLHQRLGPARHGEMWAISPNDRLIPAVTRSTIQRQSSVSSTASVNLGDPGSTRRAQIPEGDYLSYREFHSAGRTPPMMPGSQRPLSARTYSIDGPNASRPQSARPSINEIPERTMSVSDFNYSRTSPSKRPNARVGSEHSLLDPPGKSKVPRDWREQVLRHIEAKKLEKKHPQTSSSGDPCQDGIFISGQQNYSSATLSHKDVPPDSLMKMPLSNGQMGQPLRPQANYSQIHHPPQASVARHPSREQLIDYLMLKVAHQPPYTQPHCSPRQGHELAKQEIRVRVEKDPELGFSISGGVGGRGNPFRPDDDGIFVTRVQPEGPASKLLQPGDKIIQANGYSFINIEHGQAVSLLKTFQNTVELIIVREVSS
UniProt O95163: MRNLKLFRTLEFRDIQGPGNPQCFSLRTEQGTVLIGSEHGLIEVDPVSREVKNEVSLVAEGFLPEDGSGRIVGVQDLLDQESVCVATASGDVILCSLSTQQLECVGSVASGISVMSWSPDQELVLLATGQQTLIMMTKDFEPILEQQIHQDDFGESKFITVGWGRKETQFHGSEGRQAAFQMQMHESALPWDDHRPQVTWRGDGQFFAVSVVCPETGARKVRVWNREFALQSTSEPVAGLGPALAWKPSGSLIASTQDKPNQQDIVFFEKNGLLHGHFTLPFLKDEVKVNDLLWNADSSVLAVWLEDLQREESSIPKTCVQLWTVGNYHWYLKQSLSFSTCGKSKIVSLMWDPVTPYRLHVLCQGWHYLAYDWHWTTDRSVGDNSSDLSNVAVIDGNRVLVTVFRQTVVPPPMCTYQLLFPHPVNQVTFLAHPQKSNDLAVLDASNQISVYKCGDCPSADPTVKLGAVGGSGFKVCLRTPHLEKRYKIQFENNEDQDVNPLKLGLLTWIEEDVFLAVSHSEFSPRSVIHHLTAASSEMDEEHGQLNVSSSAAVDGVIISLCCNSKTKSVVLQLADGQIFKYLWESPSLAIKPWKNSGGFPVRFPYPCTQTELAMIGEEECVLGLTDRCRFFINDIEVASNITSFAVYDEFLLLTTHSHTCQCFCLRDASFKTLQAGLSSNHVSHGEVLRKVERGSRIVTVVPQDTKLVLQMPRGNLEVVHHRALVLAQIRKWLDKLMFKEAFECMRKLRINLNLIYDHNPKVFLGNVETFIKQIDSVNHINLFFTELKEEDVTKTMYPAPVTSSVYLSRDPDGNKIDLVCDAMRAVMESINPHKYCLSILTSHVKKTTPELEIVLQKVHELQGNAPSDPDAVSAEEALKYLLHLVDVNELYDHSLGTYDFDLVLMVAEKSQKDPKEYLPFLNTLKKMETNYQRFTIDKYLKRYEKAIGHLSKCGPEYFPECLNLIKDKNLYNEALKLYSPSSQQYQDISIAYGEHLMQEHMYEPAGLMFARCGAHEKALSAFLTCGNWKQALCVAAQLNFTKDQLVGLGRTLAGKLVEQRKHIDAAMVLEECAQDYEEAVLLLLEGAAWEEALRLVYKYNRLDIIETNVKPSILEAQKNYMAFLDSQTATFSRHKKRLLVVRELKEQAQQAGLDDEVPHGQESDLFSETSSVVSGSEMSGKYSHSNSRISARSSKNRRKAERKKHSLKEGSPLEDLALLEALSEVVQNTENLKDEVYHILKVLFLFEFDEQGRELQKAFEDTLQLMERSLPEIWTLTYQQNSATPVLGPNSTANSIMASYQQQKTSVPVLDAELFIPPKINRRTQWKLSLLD
UniProt Q8TE02: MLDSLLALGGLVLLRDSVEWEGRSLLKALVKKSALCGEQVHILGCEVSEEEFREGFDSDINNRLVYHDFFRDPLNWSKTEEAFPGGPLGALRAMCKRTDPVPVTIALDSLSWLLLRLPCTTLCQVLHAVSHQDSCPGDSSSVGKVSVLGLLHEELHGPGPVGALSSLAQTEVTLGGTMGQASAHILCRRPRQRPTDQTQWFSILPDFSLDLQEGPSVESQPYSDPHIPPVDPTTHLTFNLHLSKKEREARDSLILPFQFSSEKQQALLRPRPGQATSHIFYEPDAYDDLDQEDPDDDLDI
UniProt Q2NKX8: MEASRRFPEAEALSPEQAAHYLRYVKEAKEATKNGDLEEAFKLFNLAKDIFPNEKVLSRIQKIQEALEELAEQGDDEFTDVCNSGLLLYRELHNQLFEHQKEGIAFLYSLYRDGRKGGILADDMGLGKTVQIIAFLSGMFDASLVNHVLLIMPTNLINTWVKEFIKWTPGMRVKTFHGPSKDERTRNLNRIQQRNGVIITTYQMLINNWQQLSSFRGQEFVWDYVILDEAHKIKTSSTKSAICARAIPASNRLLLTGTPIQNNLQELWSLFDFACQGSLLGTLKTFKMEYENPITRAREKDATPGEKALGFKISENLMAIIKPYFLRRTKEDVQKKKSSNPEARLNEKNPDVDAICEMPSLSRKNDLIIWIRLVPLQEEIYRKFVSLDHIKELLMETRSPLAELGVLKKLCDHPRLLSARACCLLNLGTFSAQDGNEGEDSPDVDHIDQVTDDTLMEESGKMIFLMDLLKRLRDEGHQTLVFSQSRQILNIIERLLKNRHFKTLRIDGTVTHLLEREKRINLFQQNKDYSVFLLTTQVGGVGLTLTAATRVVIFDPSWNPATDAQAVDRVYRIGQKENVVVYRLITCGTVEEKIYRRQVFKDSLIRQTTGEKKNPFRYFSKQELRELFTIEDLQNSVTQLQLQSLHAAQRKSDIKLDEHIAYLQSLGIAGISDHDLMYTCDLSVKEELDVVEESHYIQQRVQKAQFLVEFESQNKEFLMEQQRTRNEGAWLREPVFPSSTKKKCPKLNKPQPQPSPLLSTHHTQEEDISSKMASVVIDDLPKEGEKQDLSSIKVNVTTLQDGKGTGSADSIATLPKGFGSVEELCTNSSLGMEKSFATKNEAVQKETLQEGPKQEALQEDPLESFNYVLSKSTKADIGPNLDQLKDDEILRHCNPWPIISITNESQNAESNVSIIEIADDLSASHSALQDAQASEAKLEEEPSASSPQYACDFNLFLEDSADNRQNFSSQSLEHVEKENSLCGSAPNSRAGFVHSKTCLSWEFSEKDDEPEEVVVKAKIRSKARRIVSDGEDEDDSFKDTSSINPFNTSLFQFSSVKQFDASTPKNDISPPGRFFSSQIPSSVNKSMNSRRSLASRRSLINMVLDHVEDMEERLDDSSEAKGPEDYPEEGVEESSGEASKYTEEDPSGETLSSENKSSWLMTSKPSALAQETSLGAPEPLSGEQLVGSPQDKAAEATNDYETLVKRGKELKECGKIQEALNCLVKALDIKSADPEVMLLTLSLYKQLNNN
UniProt P55199: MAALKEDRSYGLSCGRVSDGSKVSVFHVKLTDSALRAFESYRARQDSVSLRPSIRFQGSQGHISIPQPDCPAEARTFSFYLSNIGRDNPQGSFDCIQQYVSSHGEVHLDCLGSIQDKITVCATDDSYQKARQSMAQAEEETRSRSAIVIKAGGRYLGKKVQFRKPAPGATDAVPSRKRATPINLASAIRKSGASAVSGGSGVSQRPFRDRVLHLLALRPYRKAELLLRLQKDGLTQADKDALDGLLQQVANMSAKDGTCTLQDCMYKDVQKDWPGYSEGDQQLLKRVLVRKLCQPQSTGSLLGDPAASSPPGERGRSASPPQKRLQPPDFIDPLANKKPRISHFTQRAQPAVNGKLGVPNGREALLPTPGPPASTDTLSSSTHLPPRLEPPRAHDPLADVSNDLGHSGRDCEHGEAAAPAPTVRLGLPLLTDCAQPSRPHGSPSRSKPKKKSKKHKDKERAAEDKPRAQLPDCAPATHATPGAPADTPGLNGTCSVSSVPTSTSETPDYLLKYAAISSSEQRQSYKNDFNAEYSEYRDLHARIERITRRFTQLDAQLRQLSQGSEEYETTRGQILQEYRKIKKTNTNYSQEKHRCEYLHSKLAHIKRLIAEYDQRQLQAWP
UniProt O75821, whole entry, looked up: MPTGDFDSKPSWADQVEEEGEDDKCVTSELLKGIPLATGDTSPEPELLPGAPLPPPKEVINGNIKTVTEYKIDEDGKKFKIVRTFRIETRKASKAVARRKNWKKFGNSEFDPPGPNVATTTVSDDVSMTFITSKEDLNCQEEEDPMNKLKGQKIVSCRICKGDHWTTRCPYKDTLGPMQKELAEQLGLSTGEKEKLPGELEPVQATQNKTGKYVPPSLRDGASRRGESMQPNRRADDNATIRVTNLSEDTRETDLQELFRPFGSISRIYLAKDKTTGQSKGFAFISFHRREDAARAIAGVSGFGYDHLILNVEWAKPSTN

compound: Cn1cc(CNCC2CCN(c3ncc(C(=O)NO)cn3)CC2)c2ccccc21 [quisinostat]; test: log2 fold change, soluble protein after heating vs DMSO (PISA); higher = thermal stabilisation; K562 lysate, 10 uM; active = over 0.2 and 3.5 SD of the protein, either way, in both replicates (recomputed)
Summary of the method: (§1)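 K562 pellets were dounce-homogenised in PBS pH 7.4 containing 1 mM MgCl2, and the crude extract, at 1 mg/mL protein, was exposed to 10 μM compound for 30 min. Aliquots were heated for 3 min across 48°C-58°C, pooled, brought to 0.5% NP-40 at 4°C and spun at 21,000xg for 90 min, with the supernatant taken as soluble protein. TMTpro 16plex LC-MS/MS with equalised channel sums quantified that protein. Values are log-two fold changes in thermal stability relative to solvent controls, taken from duplicates.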

Target | log2 fold change
EPN1 (UniProt Q9Y6I3) | inactive: 0.076
EMC3 (UniProt Q9P0I2) | inactive: 0.055
EIF3K (UniProt Q9UBQ5) | inactive: -0.003
EMC1 (UniProt Q8N766) | inactive: -0.012
EMC10 (UniProt Q5UCC4) | inactive: 0.027
ELP4 (UniProt Q96EB1) | inactive: -0.02
EPB41L2 (UniProt O43491) | inactive: 0.026
EIF2B4 (UniProt Q9UI10) | inactive: 0.02
EPHX1 (UniProt P07099) | inactive: -0.076
ERGIC2 (UniProt Q96RQ1) | inactive: 0.046
ERBIN isoform 8 (UniProt Q96RT1) | inactive: -0.029
EIF3A (UniProt Q14152) | inactive: 0.037
ELP1 (UniProt O95163) | inactive: 0.022
ELP5 isoform 4 (UniProt Q8TE02) | inactive: -0.093
EMP3 (UniProt P54852) | inactive: -0.144
ELOB (UniProt Q15370) | inactive: 0.062
EIF2B5 (UniProt Q13144) | inactive: -0.002
ELAC2 (UniProt Q9BQ52) | inactive: 0.002

Target | log2 fold change
ERCC6L (UniProt Q2NKX8) | inactive: -0.051
EPS15L1 isoform 2 (UniProt Q9UBC2) | inactive: -0.014
EMC4 (UniProt Q5J8M3) | inactive: -0.006
EIF3I (UniProt Q13347) | inactive: -0.009
EIF3C (UniProt Q99613) | inactive: -0.005
ELL (UniProt P55199) | inactive: -0.095
EPHX2 (UniProt P34913) | inactive: 0.02
ENTPD5 (UniProt O75356) | inactive: -0.012
EIF2S2 (UniProt P20042) | inactive: 0.013
EIF3J (UniProt O75822) | inactive: -0.005
ENSA isoform 3 (UniProt O43768) | inactive: 0.051
EIF3G (UniProt O75821) | inactive: -0.023
ERCC2 (UniProt P18074) | inactive: -0.057
EIF4G1 (UniProt Q04637) | inactive: -0.005
EIF3M (UniProt Q7L2H7) | inactive: 0.087
EPB41L1 (UniProt Q9H4G0) | inactive: -0.062
ENY2 (UniProt Q9NPA8) | inactive: -0.03

compound: Cn1cncc1[C@@](N)(c1ccc(Cl)cc1)c1ccc2c(c1)c(-c1cccc(Cl)c1)cc(=O)n2C [tipifarnib]; test: as above
Summary of the method: as §1

Target | log2 fold change
EPN1 (UniProt Q9Y6I3) | inactive: -0.007
EMC3 (UniProt Q9P0I2) | inactive: 0.015
EIF3K (UniProt Q9UBQ5) | inactive: 0.003
EMC1 (UniProt Q8N766) | inactive: -0.013
EMC10 (UniProt Q5UCC4) | inactive: -0.054
ELP4 (UniProt Q96EB1) | inactive: -0.019
EPB41L2 (UniProt O43491) | inactive: 0.009
EIF2B4 (UniProt Q9UI10) | inactive: 0.016
EPHX1 (UniProt P07099) | inactive: -0.023
ERGIC2 (UniProt Q96RQ1) | inactive: -0.021
ERBIN isoform 8 (UniProt Q96RT1) | inactive: -0.005
EIF3A (UniProt Q14152) | inactive: 0.008
ELP1 (UniProt O95163) | inactive: -0.001
ELP5 isoform 4 (UniProt Q8TE02) | inactive: -0.041
EMP3 (UniProt P54852) | inactive: 0.031
ELOB (UniProt Q15370) | inactive: 0.021
EIF2B5 (UniProt Q13144) | inactive: -0.006
ELAC2 (UniProt Q9BQ52) | inactive: -0.006

Target | log2 fold change
ERCC6L (UniProt Q2NKX8) | inactive: -0.029
EPS15L1 isoform 2 (UniProt Q9UBC2) | inactive: 0.018
EMC4 (UniProt Q5J8M3) | inactive: -0.05
EIF3I (UniProt Q13347) | inactive: 0.018
EIF3C (UniProt Q99613) | inactive: 0.011
ELL (UniProt P55199) | inactive: 0
EPHX2 (UniProt P34913) | inactive: 0.021
ENTPD5 (UniProt O75356) | inactive: -0.062
EIF2S2 (UniProt P20042) | inactive: 0.006
EIF3J (UniProt O75822) | inactive: 0.024
ENSA isoform 3 (UniProt O43768) | inactive: -0.002
EIF3G (UniProt O75821) | inactive: 0.012
ERCC2 (UniProt P18074) | inactive: -0.02
EIF4G1 (UniProt Q04637) | inactive: -0.001
EIF3M (UniProt Q7L2H7) | inactive: 0.005
EPB41L1 (UniProt Q9H4G0) | inactive: 0.008
ENY2 (UniProt Q9NPA8) | inactive: 0.085
